Experimental data from patent publication US20210015858A1.
No constants are given. Whether binding was seen depends on the method and setting. Some binding calls cover weakened binding; strength is not graded here.

B1: 90D9 (antibody, V domains shown)
VH: EVQLQQSGPELVKPGASVKISCKTSGYTFTENTMHWVKQSHGKSLEWIGGINPNQGGNRNNQKFKGKATLTVDKSSSTAYMELRSLTSEDSAVYYCARSGLRDYAMDYWGQGTSVTVSS
VL: DIVMTQSHKFMSTSVGDRVSITCKASQHVSTAVVWYQQKPGQSPKLLIYSPSYRYTGVPDRFTGSGSGTDFTFTISSVQAEDLAVYYCQQHYSTPWTFGGGTKLEIK
B2: 350D10 (antibody, human IgG1, V domains shown)
VH: EVKLVESGGALVQPGGSLKLSCAASGFTFSDYYMYWVRQTPEKRLEWVASITKGGGSTYYPDTLKGRFTISRDNAKNTLYLQMSRLKSEDTDMYYCARQSSYDFVMDYWGQGTSVTVSS
VL: DIVMTQSHKFMSTSVGDRVTITCKASQDVDTAVAWYQQKPGQSPKLLIYWASARHTGVPDRFTGSGSGTDFTLTISNVQSEDLADYFCQQYSNYPLTFGVGTKLELK

Molecular target: His-tagged cyno-TIGIT (cyno)
Test: ELISA

| Binder | binding |
| --- | --- |
| B1 | binds |
| B2 | binds |
